Assay results reported in PubChem BioAssay (Tox21).
Inconclusive results, whose numbers are uncertain, are shown with a selection of clear calls. Potencies beside an inconclusive call are fits to weak or partial responses and may not hold up. Calls of active or inactive are those of the source. Calls follow the shape of the dose curve; as a rule, active = well fitted cell-killing curve with a large enough effect in the repeat runs; inconclusive = weak or mixed curves, or effect the other way; inactive = flat fitted curve, though single readings scatter.

Experiment: cAMP Responsive Elements (CRE) small molecule agonists, cell-based qHTS assay: qHTS cell viability counter screen (AID 2060914);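 also: viability read after 3 h of compound exposure; nearly all actives have a fitted effect of over 50% in size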
Settings: CRE-bla HEK293T viability, CellTiter-Glo luminescence, 5 h; series mostly up to 92.4 µM; activity change, negative = cytotoxicity: at the top concentration
Description: National Center for Advancing Translational Sciences [NCATS]
Division of Preclinical Innovation [DPI]
U.S. Environmental Protection Agency [EPA]
National Institutes of Environmental Health Sciences [NIEHS]
National Toxicology Program [NTP]
U.S. Food and Drug Administration [FDA]
CREB (cyclic-AMP Responsive Element Binding Protein) is a cellular transcription factor. It binds to certain DNA sequences called cAMP Responsive Elements (CRE) and regulates the transcription of the genes. […] This cell line can be used to find agonists/antagonists of the cyclic AMP signaling pathway. The activation of the report gene under culture conditions can be detected by fluorescence intensity. This cell line has been used to screen the Tox21 10K compound library to identify agonists that induce oxidative stress. The cytotoxicity of the Tox21 compound library against the CRE-bla cell line was tested in parallel by measuring the cell viability using CellTiter-Glo assay (Promega, Madison, WI) in the same wells.
Tox21 Assay Protocol Summary:
CRE-bla Hek 293T cells were suspended in assay medium (DMEM containing 10% dialyzed FBS, 0.1 mM NEAA, 1 mM sodium pyruvate and 25 mM HEPES) and dispensed at 2,000 cells/5 uL /well into 1536-well black wall/clear bottom plates using a Multidrop Combi (ThermoFisher Scientific, Waltham, MA) dispenser. After the assay plates were incubated at 37 C/5% CO2 for 18 hrs, 23 nL of compounds dissolved in DMSO, positive controls or DMSO only was transferred to the assay plate by a pintool workstation (Kalypsys, San Diego, CA). After the plates were incubated at 37 C/5% CO2 for 3 hrs, 1 uL of LiveBLAzer B/G FRET substrate (Invitrogen, Carlsbad, CA) was added to each well using Bioraptr Flying Reagent Dispenser (FRD, Aurora Discovery, San Diego, CA). The plates were incubated at room temperature for 2 h, then fluorescence intensities were measured using an Envision plate reader (PerkinElmer, Shelton, CT) at Excitation 405nm, Emission 460nm and 530nm. The % activity was determined from the ratio of 460nm/530nm. For cell viability readout that measures cytotoxicity, 4 uL /well of CellTiter-Glo reagent was added into the assay plates using Bioraptr FRD. After 30 min incubation at room temperature, the luminescence intensity in the assay plates was measured using a ViewLux (PerkinElmer, Shelton, CT) plate reader.
% is scaled to controls: 0 for no effect and ±100 for the full control effect; potency is read from the fitted curve at half-maximal effect.

| SMILES | activity change, negative = cytotoxicity | Potency |
| --- | --- | --- |
| CC(C)(c1ccc(Oc2ccc(N)cc2)cc1)c1ccc(Oc2ccc(N)cc2)cc1 | inactive: -6.08% | – |
| O=C1CCCN1C1CCCCC1 | inactive: 7.01% | – |
| OCCOCCOCCOCCOCCO | – | inactive |
| CC1=NS(=O)(=O)c2cc(Cl)ccc2N1 | – | inconclusive: 7.5 µM [cytotoxic, single point] |
| O=c1c(-c2ccc(O)cc2)coc2cc(O)cc(O)c12 | – | inconclusive: 0.217 µM [cytotoxic, single point] |
| c1ccc(C(O[C@H]2CCCN(CCc3ccc4c(c3)OCO4)C2)c2ccccc2)cc1 | inactive: 1.67% [at 42.5 µM] | – |
| O=C(Nc1ccc(Cl)cc1)Nc1ccc(Cl)c(C(F)(F)F)c1 | – | active: 23.7 µM |
| CC(C)=O | – | active: 25 µM |
| COc1c(N2CCNC(C)C2)c(F)cc2c(=O)c(C(=O)O)cn(C3CC3)c12 (stereo not given) | – | inconclusive: 33.5 µM [cytotoxic, single point] |
| CCCC[P+](C)(CCCC)CCCC | – | inconclusive: 27.7 µM [cytotoxic, single point] |
| C=CC(C)(O)CC/C=C(\C)CCC=C(C)C (stereo not given) | inactive: 7.01% | – |
| O=C(O)c1ccncc1 | – | inconclusive: 70.5 µM [cytotoxic, partial curve, poor fit] |
| CCCOC(=O)c1ccc(O)cc1 | – | inconclusive: 0.969 µM [rising, partial curve, poor fit] |
| CC[C@H](C)C(=O)O[C@H]1C[C@@H](C)C=C2C=C[C@H](C)[C@H](CC[C@@H]3C[C@@H](O)CC(=O)O3)[C@H]21 | – | inconclusive: 68.2 µM [rising, partial curve, poor fit] |
| C[C@H]1O[C@@H](O[C@H]2CC[C@@]3(C)[C@H](CC[C@@H]4[C@@H]3C[C@@H](O)[C@]3(C)[C@@H](C5=CC(=O)OC5)CC[C@]43O)C2)C[C@H](O)[C@@H]1O[C@H]1C[C@H](O)[C@H](O[C@H]2C[C@H](O)[C@H](O[C@@H]3O[C@H](CO)[C@@H](O)[C@H](O)[C@H]3O)[C@@H](C)O2)[C@@H](C)O1 | – | inconclusive: 0.188 µM [cytotoxic, full curve] |
| CC(C)=CCC[C@](C)(O)[C@@H]1CC=C(C)CC1 | inactive: -0.256% | – |
| CC(=O)Nc1nnc(S(N)(=O)=O)s1 | – | inactive |
| O=C(O)c1c2ccccc2cc2ccccc12 | – | inconclusive: 27.2 µM [rising, partial curve] |
| CCCCc1nc2cccnc2n1Cc1ccc(-c2ccccc2-c2nnn[nH]2)cc1 | – | inconclusive: 48.6 µM [rising, partial curve, poor fit] |
| C1COCCN1 | – | inconclusive: 21.7 µM [rising, partial curve, poor fit] |

Another view of some results above:
SMILES,"activity change, negative = cytotoxicity",Potency
O=c1c(-c2ccc(O)cc2)coc2cc(O)cc(O)c12,–,"inconclusive: 0.217 µM [cytotoxic, single point]"
c1ccc(C(O[C@H]2CCCN(CCc3ccc4c(c3)OCO4)C2)c2ccccc2)cc1,inactive: 1.67% [at 42.5 µM],–

Next records follow.

| SMILES | activity change, negative = cytotoxicity | Potency |
| --- | --- | --- |
| NC(=O)NC1N=C([O][Al])NC1=O (stereo not given) | – | inconclusive: 0.298 µM [cytotoxic, single point] |
| C=CC(C)CCCC(C)(C)O (stereo not given) | – | inconclusive: 2.43 µM [cytotoxic, full curve, poor fit] |
| CCN(CC)c1ccc2c(c1)Oc1cc(N(CC)CC)ccc1C21OC(=O)c2ccccc21 | inactive: 3.45% [at 42.5 µM] | – |
| Cc1ccc(N)cc1O | – | inconclusive: 68.6 µM [cytotoxic, partial curve, poor fit] |
| Cc1onc(-c2ccccc2)c1-c1ccc(S(N)(=O)=O)cc1 | – | inconclusive: 2.98 µM [cytotoxic, single point] |
| CCN(CC)CCOC(=O)C(c1ccccc1)c1ccccc1 | – | inconclusive: 23.7 µM [cytotoxic, partial curve, poor fit] |
| On1nnc2ccccc21 | – | inconclusive: 2.73 µM [cytotoxic, single point] |
| COC(C)COC(C)COC(C)CO (stereo not given) | – | inactive |
| CC(=O)CC(c1ccccc1)c1c(O)c2ccccc2oc1=O (stereo not given) | – | inconclusive: 33.5 µM [cytotoxic, single point] |
| CCCNC(C)(C)COC(=O)c1ccccc1 | – | inconclusive: 0.0094 µM [rising, full curve] |
| O=C(O)CC(=O)C(=O)O | inactive: -11.1% | – |
| CN(C)C(=O)C1(N2CCCCC2)CCN(CC[C@@]2(c3ccc(Cl)c(Cl)c3)CN(C(=O)c3ccccc3)CCO2)CC1 | – | inconclusive: 64.1 µM [cytotoxic, single point] |
| C=CC(=O)OCCn1c(=O)n(CCOC(=O)C=C)c(=O)n(CCOC(=O)C=C)c1=O | – | inconclusive: 27.3 µM [rising, partial curve] |
| CCOc1ccccc1OCCN[C@H](C)Cc1ccc(OC)c(S(N)(=O)=O)c1 | inactive: 4.1% [at 42.5 µM] | – |
| CCCCC(=O)O[C@]1(C(=O)CO)CC[C@H]2[C@@H]3CCC4=CC(=O)CC[C@]4(C)[C@H]3[C@@H](O)C[C@@]21C | – | inconclusive: 1.33 µM [cytotoxic, single point] |
| Cc1ccc(S(=O)(=O)NC(=O)NN2CC3CCCC3C2)cc1 (stereo not given) | – | inconclusive: 0.473 µM [cytotoxic, partial curve, poor fit] |
| C/C=C\C/C=C/CCCCCCCCOC(C)=O | – | inconclusive: 0.611 µM [cytotoxic, single point] |
| Cc1cc(Cc2ccc(N)c(C)c2)ccc1N | – | inconclusive: 68.6 µM [cytotoxic, single point] |
| COc1nc(C)nc(N)n1 | inactive: 0.284% | – |
| C=C(C)C1CCC(C)CC1O (stereo not given) | – | inconclusive: 0.611 µM [cytotoxic, single point] |
